Patent US10882869B2, “Condensed heterocyclic compounds and pesticides” (NISSAN CHEMICAL CORPORATION, priority 2015, dated 2021)
Some results were stated once for a whole list of compounds, not compound by compound. At least one read-out could not be matched to a standard name with certainty. Some ranges recur; such a range may be that of the whole group of compounds. At least one compound was matched to its structure with a doubt left.

System: Frankliniella occidentalis
Assay: Insecticidal activity on Frankliniella occidentalis (kidney bean leaf spray)
Format: in vivo
Conditions: 500 ppm solution sprayed (2.5 mg/cm^2), kidney bean leaves, 2 days after
Procedure: In styrol cups having an inner diameter of 7 cm, wet filter paper was laid, kidney bean leaves cut into a 3 cm square were laid on the paper, and each leaf was inoculated with 20 larvae of Frankliniella occidentalis. […] 2.5 ml of the solutions were sprayed from a rotary spray tower into the styrol cups (2.5 mg/cm^2).
2 Days after, dead insects were counted, and insect damage on kidney bean leaves was examined. The mortality was calculated by using the same equation as in Test Example 1.
The insect damage degree was evaluated as follows. 1: 0 to 20% insect damage, 2: 20 to 50% insect damage, 3: 50 to 70% insect damage, and 4: 70% or higher insect damge. The test was carried out in duplicate.

SMILES	insect damage degree
CCS(=O)(=O)c1c(-c2nc3cc(C(F)(F)F)cnc3n2C)nc2ccc(C(F)(F)F)cn12 [1-1-001a]	2 (20 to 50% insect damage)
CCSc1c(-c2nc3cc(C(F)(F)F)cnc3n2C)nc2cc(C(F)(F)F)ccn12 [1-1-002b, 2-[3-(ethylthio)-7-(trifluoromethyl)imidazo[1,2-a]pyridin-2-yl]-3-methyl-6-(trifluoromethyl)-3H-imidazo[4,5-b]pyridine]	2 (20 to 50% insect damage)
CCS(=O)(=O)c1c(-c2nc3cc(C(F)(F)F)cnc3n2C)nc2ccc(Cl)cn12 [1-1-003a]	2 (20 to 50% insect damage)
CCS(=O)(=O)c1c(-c2nc3cc(C(F)(F)F)cnc3n2C)nc2ccc(I)cn12 [1-1-005a]	2 (20 to 50% insect damage)
CCS(=O)(=O)c1c(-c2nc3cc(C(F)(F)F)cnc3n2C)nc2ccc(Br)cn12 [1-1-006a]	2 (20 to 50% insect damage)
CC[S+]([O-])c1c(-c2nc3cc(C(F)(F)F)cnc3n2C)nc2cc(C(F)(F)F)c(Br)cn12 (stereo not shown) [1-1-023c]	2 (20 to 50% insect damage)
CCS(=O)(=O)c1c(-c2nc3cc(C(F)(F)F)cnc3n2C)nc2cc(C(=O)N(C)C)ccn12 [1-1-035a]	2 (20 to 50% insect damage)
CCS(=O)(=O)c1c(-c2nc3cc(C(F)(F)F)cnc3n2C)nc2cc(C(F)(F)F)c(SC)cn12 [1-1-036a]	2 (20 to 50% insect damage)
CCS(=O)(=O)c1c(-c2nc3cc(C(F)(F)F)cnc3n2C)nc2cc(C(F)(F)F)c(S(C)(=O)=O)cn12 [1-1-038a]	2 (20 to 50% insect damage)
CCS(=O)(=O)c1c(-c2nc3cc(C(F)(F)F)cnc3n2C)nc2cc(C(F)(F)F)c([S+](C)[O-])cn12 (stereo not shown) [1-1-039a]	2 (20 to 50% insect damage)
CCS(=O)(=O)c1c(-c2nc3cc(C(F)(F)F)cnc3n2C)nc2cc(SC)ccn12 [1-1-042a]	2 (20 to 50% insect damage)
CCS(=O)(=O)c1c(-c2nc3cc(C(F)(F)F)cnc3n2C)nc2cc([S+](C)[O-])ccn12 (stereo not shown) [1-1-043a]	2 (20 to 50% insect damage)
CCS(=O)(=O)c1c(-c2nc3cc(C(F)(F)F)cnc3n2C)nc2cc(C(F)(F)F)c(I)cn12 [1-1-049a]	2 (20 to 50% insect damage)
CCS(=O)(=O)c1c(-c2nc3cc(C(F)(F)F)cnc3n2C)nc2cc(C#N)c(I)cn12 [1-1-050a]	2 (20 to 50% insect damage)
CCS(=O)(=O)c1c(-c2nc3cc(C(F)(F)F)cnc3n2C)nc2cc(F)c(I)cn12 [1-1-051a]	2 (20 to 50% insect damage)
CCS(=O)(=O)c1c(-c2nc3cc(C(F)(F)F)cnc3n2C)nc2cc(OC)c(I)cn12 [1-1-052a]	2 (20 to 50% insect damage)
CCSc1c(-c2nc3cc(C(F)(F)F)cnc3n2C)nc2cc(OC)c(I)cn12 [1-1-052b]	2 (20 to 50% insect damage)
CCS(=O)(=O)c1c(-c2nc3cc(C(F)(F)F)cnc3n2C)nc2ncc(I)cn12 [1-1-053a]	2 (20 to 50% insect damage)
CCSc1c(-c2nc3cc(C(F)(F)F)cnc3n2C)nc2ncc(C(F)(F)F)cn12 [1-1-054b, 2-[3-(ethylthio)-6-(trifluoromethyl)imidazo[1,2-a]pyrimidin-2-yl]-3-methyl-6-(trifluoromethyl)-3H-imidazo[4,5-b]pyridine]	2 (20 to 50% insect damage)
CCSc1c(-c2nc3cc(C(F)(F)F)cnc3n2C)nc2cc(C(F)(F)F)ncn12 [1-1-055b, 2-[3-(ethylthio)-7-(trifluoromethyl)imidazo[1,2-c]pyrimidin-2-yl]-3-methyl-6-(trifluoromethyl)-3H-imidazo[4,5-b]pyridine]	2 (20 to 50% insect damage)
CCS(=O)(=O)c1c(-c2nc3cc(C(F)(F)F)cnc3n2C)nc2cnc(I)cn12 [1-1-056a]	2 (20 to 50% insect damage)
CCS(=O)(=O)c1c(-c2nc3cc(C(F)(F)F)cnc3n2C)nc2cc(C(F)(F)F)cnn12 [1-1-057a, 2-[3-(ethylsulfonyl)-7-(trifluoromethyl)imidazo[1,2-b]pyridazin-2-yl]-3-methyl-6-(trifluoromethyl)-3H-imidazo[4,5-b]pyridine]	2 (20 to 50% insect damage)
CC[S+]([O-])c1c(-c2nc3cc(C(F)(F)F)cnc3n2C)nc2cc(C(F)(F)F)cnn12 (stereo not shown) [1-1-057c, 2-[3-(ethylsulfinyl)-7-(trifluoromethyl)imidazo[1,2-b]pyridazin-2-yl]-3-methyl-6-(trifluoromethyl)-3H-imidazo[4,5-b]pyridine]	2 (20 to 50% insect damage)
CCS(=O)(=O)c1c(-c2nc3cc(C(F)(F)F)cnc3n2C)nc2c(I)cc(I)cn12 [1-1-061a]	2 (20 to 50% insect damage)
CCS(=O)(=O)c1c(-c2nc3cc(C(F)(F)F)cnc3n2C)nc2c(Cl)cc(I)cn12 [1-1-062a]	2 (20 to 50% insect damage)
CCS(=O)(=O)c1c(-c2nc3cc(C(F)(F)F)cnc3n2C)nc2c(F)cc(Br)cn12 [1-1-063a]	2 (20 to 50% insect damage)
CCS(=O)(=O)c1c(-c2nc3cc(C(F)(F)F)cnc3n2C)nc2c(OC)cc(I)cn12 [1-1-064a]	2 (20 to 50% insect damage)
CCS(=O)(=O)c1c(-c2nc3cc(C(F)(F)F)cnc3n2C)nc2c(C#N)cc(I)cn12 [1-1-067a]	2 (20 to 50% insect damage)

SMILES	insect damage degree
CCS(=O)(=O)c1c(-c2nc3cc(C(F)(F)F)cnc3n2C)nc2c(N(C)C)cc(I)cn12 [1-1-068a]	2 (20 to 50% insect damage)
CCSc1c(-c2nc3cc(C(F)(F)F)cnc3n2C)nc2c(C(F)(F)F)cc(Cl)cn12 [1-1-069b]	2 (20 to 50% insect damage)
CCS(=O)(=O)c1c(-c2nc3cc(C(F)(F)F)cnc3n2C)nc2c(F)cc(C(F)(F)F)cn12 [1-1-070a]	2 (20 to 50% insect damage)
CCS(=O)(=O)c1c(-c2nc3cc(C(F)(F)F)cnc3n2C)nc2c(I)cc(C(F)(F)F)cn12 [1-1-071a]	2 (20 to 50% insect damage)
CCS(=O)(=O)c1c(-c2nc3cc(C(F)(F)F)cnc3n2C)nc2c(C)cc(I)cn12 [1-1-072a]	2 (20 to 50% insect damage)
CCS(=O)(=O)c1c(-c2nc3cc(C(F)(F)F)cnc3n2C)nc2c(F)cc(I)cn12 [1-1-074a]	2 (20 to 50% insect damage)
CCS(=O)(=O)c1c(-c2nc3cc(C(F)(F)F)cnc3n2C)nc2c(Br)cc(C(F)(F)F)cn12 [1-1-076a]	2 (20 to 50% insect damage)
CCS(=O)(=O)c1c(-c2nc3cc(C(F)(F)F)cnc3n2C)nc2ccc(-c3ccccc3F)cn12 [1-1-080a]	2 (20 to 50% insect damage)
CCS(=O)(=O)c1c(-c2nc3cc(C(F)(F)F)cnc3n2C)nc2ccc(-c3cccc(F)c3)cn12 [1-1-081a]	2 (20 to 50% insect damage)
CCS(=O)(=O)c1c(-c2nc3cc(C(F)(F)F)cnc3n2C)nc2ccc(-c3ccc(F)cc3)cn12 [1-1-082a]	2 (20 to 50% insect damage)
CCS(=O)(=O)c1c(-c2nc3cc(C(F)(F)F)cnc3n2C)nc2ccc(-c3ccncc3)cn12 [1-1-087a]	2 (20 to 50% insect damage)
CCS(=O)(=O)c1c(-c2nc3cc(C(F)(F)F)cnc3n2C)nc2ccc(C#C[Si](C)(C)C)cn12 [1-1-089a]	2 (20 to 50% insect damage)
CCS(=O)(=O)c1c(-c2nc3cc(C(F)(F)F)cnc3n2C)nc2ccc(C#CC3CC3)cn12 [1-1-090a]	2 (20 to 50% insect damage)
CCS(=O)(=O)c1c(-c2nc3cc(C(F)(F)C(F)(F)F)cnc3n2C)nc2ccc(Cl)cn12 [1-1-093a]	2 (20 to 50% insect damage)
CCS(=O)(=O)c1c(-c2nc3cc(C(F)(F)F)cnc3n2C)nc2ccc(SC)cn12 [1-1-095a]	2 (20 to 50% insect damage)
CCS(=O)(=O)c1c(-c2nc3cc(C(F)(F)F)cnc3n2C)nc2ccc([S+](C)[O-])cn12 (stereo not shown) [1-1-096a]	2 (20 to 50% insect damage)
CCS(=O)(=O)c1c(-c2nc3cc(C(F)(F)F)cnc3n2C)nc2ccc(S(C)(=O)=O)cn12 [1-1-097a]	2 (20 to 50% insect damage)
CCS(=O)(=O)c1c(-c2nc3cc(C(F)(F)C(F)(F)F)cnc3n2C)nc2ccc(SC)cn12 [1-1-099a]	2 (20 to 50% insect damage)
CCS(=O)(=O)c1c(-c2nc3cc(C(F)(F)F)cnc3n2C)nc2c(C#N)cc(C(F)(F)F)cn12 [1-1-105a]	2 (20 to 50% insect damage)
CCSc1c(-c2nc3cc(C(F)(F)F)cnc3n2C)nc2cc(C(F)F)ccn12 [1-1-106b]	2 (20 to 50% insect damage)
CCS(=O)(=O)c1c(-c2nc3cc(C(F)(F)F)cnc3n2C)nc2cc(F)c(Br)cn12 [1-1-109a]	2 (20 to 50% insect damage)
CCS(=O)(=O)c1c(-c2nc3cc(C(F)(F)F)cnc3n2C)nc2cc(Cl)c(Br)cn12 [1-1-110a]	2 (20 to 50% insect damage)
CCS(=O)(=O)c1c(-c2nc3cc(C(F)(F)F)cnc3n2C)nc2c(Cl)cc(Br)cn12 [1-1-112a]	2 (20 to 50% insect damage)
CCS(=O)(=O)c1c(-c2nc3cc(C(F)(F)F)cnc3n2C)nc2cc(I)c(Cl)cn12 [1-1-114a]	2 (20 to 50% insect damage)
CCS(=O)(=O)c1c(-c2nc3cc(C(F)(F)F)cnc3n2C)nc2cc(Br)c(Cl)cn12 [1-1-115a]	2 (20 to 50% insect damage)
CCS(=O)(=O)c1c(-c2nc3cc(C(F)(F)F)cnc3n2C)nc2cc([S+](C)[O-])c(Cl)cn12 (stereo not shown) [1-1-117a]	2 (20 to 50% insect damage)
CC[S+]([O-])c1c(-c2nc3cc(C(F)(F)F)cnc3n2C)nc2cnccn12 (stereo not shown) [1-1-120c]	2 (20 to 50% insect damage)
